From paper PMC8880039, “Kinetic and Molecular Docking Studies to Determine the Effect of Inhibitors on the Activity and Structure of Fused G6PD::6PGL Protein from Trichomonas vaginalis” (Molecules, 2022)

What was measured:
[1] = tested on: fused TvG6PD::6PGL protein; assay: Extrinsic fluorescence (ANS) assay; parameters: species or system Trichomonas vaginalis; details: for maximum extrinsic (ANS) fluorescence intensity: 0.1 mg/mL protein, compound at IC50, 2 h at 37 °C, enzyme without inhibitor about 509 a.u.; for extrinsic (ANS) fluorescence intensity fold change: versus TvG6PD::6PGL protein without any compound
[2] = tested on: fused TvG6PD::6PGL protein; assay: Intrinsic fluorescence assay; parameters: species or system Trichomonas vaginalis; details: for maximum intrinsic fluorescence intensity: protein without inhibitors 984 a.u.; for fold loss of intrinsic fluorescence intensity: versus protein in the absence of inhibitors (984 a.u.)
[3] = 0.1 mg/mL protein, compound at IC50, 2 h at 37 °C

SMILES: O=C(COc1ccc(/C=C2\SC(=O)NC2=O)cc1)NC1CCN(Cc2ccccc2)CC1 [MCC-7]
- maximum extrinsic (ANS) fluorescence intensity [1]: 60 a.u.
- extrinsic (ANS) fluorescence intensity fold change [1]: −8.4 fold
- maximum intrinsic fluorescence intensity [2, 3]: 18 a.u.
- fold loss of intrinsic fluorescence intensity [2]: 55 fold

SMILES: O=C(Nc1ccc(Cl)cc1)Nc1ncc([N+](=O)[O-])s1 [CNZ-3]
- extrinsic (ANS) fluorescence intensity fold change [1]: 1.3 fold
- maximum intrinsic fluorescence intensity [2, 3]: 382 a.u.
- fold loss of intrinsic fluorescence intensity [2]: 2.5 fold

SMILES: COc1ccc(NC(=O)Nc2ncc([N+](=O)[O-])s2)cc1 [CNZ-17]
- maximum extrinsic (ANS) fluorescence intensity [1]: 90 a.u.
- extrinsic (ANS) fluorescence intensity fold change [1]: −5.6 fold
- maximum intrinsic fluorescence intensity [2, 3]: 148 a.u.
- fold loss of intrinsic fluorescence intensity [2]: 6 fold

SMILES: COc1cc(CCC(=O)O)ccc1OCc1ccc(-c2ccccc2C#N)cc1 [JMM-3]
- maximum extrinsic (ANS) fluorescence intensity [1]: 162 a.u.
- extrinsic (ANS) fluorescence intensity fold change [1]: −3.1 fold
- redshift of intrinsic fluorescence emission [2, 3]: 8 nm
